Test results reported in article PMC3673989, “Effect of Single Amino Acid Substitution Observed in Cancer on Pim-1 Kinase Thermodynamic Stability and Structure” (PLoS ONE, 2013).

Chains of the proteins cited; added tags and fusions are not shown.
UniProt P11309, whole entry E124Q: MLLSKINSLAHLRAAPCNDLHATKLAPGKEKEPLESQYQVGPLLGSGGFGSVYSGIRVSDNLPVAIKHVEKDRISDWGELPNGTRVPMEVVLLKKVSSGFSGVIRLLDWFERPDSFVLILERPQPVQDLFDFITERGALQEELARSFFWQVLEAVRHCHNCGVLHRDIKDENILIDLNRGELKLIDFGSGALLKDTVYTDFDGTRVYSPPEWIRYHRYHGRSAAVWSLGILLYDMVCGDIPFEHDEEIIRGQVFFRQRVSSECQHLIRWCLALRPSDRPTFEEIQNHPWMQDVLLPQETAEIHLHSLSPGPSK
UniProt P11309, whole entry E135K: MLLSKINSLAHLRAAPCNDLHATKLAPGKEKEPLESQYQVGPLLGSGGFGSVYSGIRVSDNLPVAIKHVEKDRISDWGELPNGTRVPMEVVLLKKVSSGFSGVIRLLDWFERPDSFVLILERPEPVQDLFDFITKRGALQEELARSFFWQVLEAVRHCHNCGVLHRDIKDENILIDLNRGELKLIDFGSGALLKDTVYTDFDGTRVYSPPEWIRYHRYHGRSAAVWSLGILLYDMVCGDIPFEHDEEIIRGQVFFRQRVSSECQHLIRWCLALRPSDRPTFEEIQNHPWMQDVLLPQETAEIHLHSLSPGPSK
UniProt P11309, whole entry E142D: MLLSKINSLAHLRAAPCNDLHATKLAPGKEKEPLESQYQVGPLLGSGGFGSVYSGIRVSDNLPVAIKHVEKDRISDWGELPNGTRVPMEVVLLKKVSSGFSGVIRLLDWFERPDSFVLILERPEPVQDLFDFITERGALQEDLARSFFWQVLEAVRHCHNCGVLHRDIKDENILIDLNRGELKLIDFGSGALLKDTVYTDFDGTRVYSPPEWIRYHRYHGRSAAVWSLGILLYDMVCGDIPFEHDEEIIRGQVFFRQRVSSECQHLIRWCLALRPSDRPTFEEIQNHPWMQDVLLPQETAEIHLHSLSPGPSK
UniProt P11309, whole entry Y53H: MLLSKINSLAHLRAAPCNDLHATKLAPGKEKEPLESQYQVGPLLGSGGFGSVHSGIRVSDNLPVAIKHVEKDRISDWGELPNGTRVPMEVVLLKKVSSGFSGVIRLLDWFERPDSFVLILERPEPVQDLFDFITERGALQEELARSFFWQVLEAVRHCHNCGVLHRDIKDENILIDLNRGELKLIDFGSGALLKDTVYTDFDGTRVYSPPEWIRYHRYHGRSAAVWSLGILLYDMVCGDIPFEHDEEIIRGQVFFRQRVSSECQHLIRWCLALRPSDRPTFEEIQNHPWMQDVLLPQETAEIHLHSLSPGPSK
UniProt P11309, whole entry: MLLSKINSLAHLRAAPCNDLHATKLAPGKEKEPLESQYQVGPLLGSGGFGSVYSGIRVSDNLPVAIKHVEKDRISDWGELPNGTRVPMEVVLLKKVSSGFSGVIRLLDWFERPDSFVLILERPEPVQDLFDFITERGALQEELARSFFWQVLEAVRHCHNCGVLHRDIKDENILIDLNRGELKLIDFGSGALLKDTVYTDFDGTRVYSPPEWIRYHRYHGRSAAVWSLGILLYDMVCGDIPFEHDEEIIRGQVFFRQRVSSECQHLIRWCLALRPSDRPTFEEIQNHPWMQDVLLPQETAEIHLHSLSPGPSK

Columns and labels:
Test in all cases: Inhibitor binding by temperature shift assay (SYPRO Orange)
Pim-1 E124Q = target: T1, Pim-1 E124Q (Homo sapiens, UniProt P11309, E124Q); settings: Pim-1 E124Q 2 µM, compound 10 µM
T1 construct: hexahistidine tag (TEV-cleavable) (cleaved yes); made in house; host or cells: E. coli BL21(DE3)
Protocol: (§1) Thermal melting experiments were carried out using an Mx3005p Real Time PCR machine (Stratagene). Proteins were buffered in 10 mM HEPES pH 7.5, 500 mM NaCl and assayed in a 96-well plate at a final concentration of 2 µM in 20 µl volume. Compounds were added at a final concentration of 10 µM. SYPRO Orange (Molecular Probes) was added as a fluorescence probe at a dilution of 1∶1000. […] Data was analysed as previously described.

Pim-1 E135K = target: T2, Pim-1 E135K (Homo sapiens, UniProt P11309, E135K); settings: Pim-1 E135K 2 µM, compound 10 µM
T2 construct: hexahistidine tag (TEV-cleavable) (cleaved yes); made in house; host or cells: E. coli BL21(DE3)
Protocol: as §1

Pim-1 E142D = target: T3, Pim-1 E142D (Homo sapiens, UniProt P11309, E142D); settings: Pim-1 E142D 2 µM, compound 10 µM
T3 construct: hexahistidine tag (TEV-cleavable) (cleaved yes); made in house; host or cells: E. coli BL21(DE3)
Protocol: as §1

Pim-1 Y53H = target: T4, Pim-1 Y53H (Homo sapiens, UniProt P11309, Y53H); settings: Pim-1 Y53H 2 µM, compound 10 µM
T4 construct: hexahistidine tag (TEV-cleavable) (cleaved yes); made in house; host or cells: E. coli BL21(DE3)
Protocol: as §1

Pim-1 wild type = target: T5, Pim-1 wild type (Homo sapiens, UniProt P11309); settings: Pim-1 wild type 2 µM, compound 10 µM
T5 construct: hexahistidine tag (TEV-cleavable) (cleaved yes); made in house; host or cells: E. coli BL21(DE3)
Protocol: as §1

Structure (SMILES): CCC(CO)Nc1ccc2ncc(-c3cccc(Cl)c3)n2n1 (centres unmarked) [K00488]
- ΔTm (Pim-1 E124Q): 6.0 K
- ΔTm (Pim-1 E135K): 6.7 K
- ΔTm (Pim-1 E142D): 6.9 K
- ΔTm (Pim-1 Y53H): 6.0 K
- ΔTm (Pim-1 wild type): 6.3 K
